This is one part of the list.

Chains of the proteins cited; added tags and fusions are not shown.
UniProt Q0JBA9, entry or part of it: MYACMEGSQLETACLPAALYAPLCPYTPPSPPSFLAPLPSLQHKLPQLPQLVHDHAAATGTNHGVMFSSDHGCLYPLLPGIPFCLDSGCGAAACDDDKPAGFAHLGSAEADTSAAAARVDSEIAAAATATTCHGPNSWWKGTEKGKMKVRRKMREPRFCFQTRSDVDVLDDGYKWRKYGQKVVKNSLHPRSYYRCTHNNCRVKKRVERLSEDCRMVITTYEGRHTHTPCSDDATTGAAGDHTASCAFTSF

The target of this experiment is OsWRKY34 (Oryza sativa, UniProt Q0JBA9 1-250). Description: protein-binding microarray (RPBM); PBS, 2% BSA, 51.3 ng/ul salmon testes DNA, 50 uM zinc acetate, 200 nM TF, 25 C, 1 h; high values mean tight binding. The following applies: protein: recombinant; tags: N-terminal polyhistidine and DsRed monomer fusion (pET32a); label: CyDye5-dUTP incorporated in the synthesized complementary strand; 3' TTTTT single-stranded linker to array surface; dsDNA, one strand shown. In outline: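 A custom Agilent array was converted to double-stranded form by primer extension with Cy5-dUTP and blocked with 2% BSA. Protein at 200 nM in PBS with 2% BSA, salmon testes DNA and 50 µM zinc acetate was applied for 1 h at 25 °C, followed by washing. The proteins were polyhistidine–DsRed N-terminal fusions of transcription factors, expressed in E. coli BL21-CodonPlus and Ni–NTA-purified. The binding signal is per-feature fluorescence intensity (arbitrary units) from an Axon 4000B scanner.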
Consider “CAAGTTTGACGCGCACCGGCACCGCCCCTGTACCGAAATTCGGAGTCACCTAGTGCAG”, for which the binding signal was 8030 fluorescence intensity (a.u.).
Then “TGTAGTATATTAGTATCTTCTTTGTGCTGTGTTGTTTCTCCGGAGTCACCTAGTGCAG”, with 9510 fluorescence intensity (a.u.); and “ACCGTGTAATTTCCTCATTTGCCTTTCAGTTTTTCCCTTTCGGAGTCACCTAGTGCAG”, with 9060 fluorescence intensity (a.u.).
In the case of “TGACTCAGTTTGTGATATTCTCACCAACAGCCTACTCAGTCGGAGTCACCTAGTGCAG”, the binding signal is 8050 fluorescence intensity (a.u.).
Then “GAACGCCGTTCTGTGGTCTCACATTGGTCATTGGCCGTTCCGGAGTCACCTAGTGCAG”, with 8900 fluorescence intensity (a.u.); and “TGTACTTCAATACATATCTTCAGTTTTGTTCTTTGTGATACGGAGTCACCTAGTGCAG”, with 9970 fluorescence intensity (a.u.); and “ATGTCCCTAATTACTGCGTTTTCCATTTTGCTGTTTTTTACGGAGTCACCTAGTGCAG”, with 16500 fluorescence intensity (a.u.).
Regarding “TCTGGTTATTGCACACGAAGTTACGTTTTTGCCCTTCTACCGGAGTCACCTAGTGCAG”, the binding signal is 8090 fluorescence intensity (a.u.).
For the sequence “TTAGCATAATTGGTTGGTTGGGTACTTTGGGTGTAATCATCGGAGTCACCTAGTGCAG”, the binding signal was 13800 fluorescence intensity (a.u.).
For the sequence “TGAACTAACGCCATCAGATGAGTCATCCGTCAACCAGTATCGGAGTCACCTAGTGCAG”, the binding signal is 8220 fluorescence intensity (a.u.).
As for “ATCCATAATTAACCTATGTGATGCTACAGTAAATATTTGTCGGAGTCACCTAGTGCAG”, the binding signal was 8040 fluorescence intensity (a.u.).
Take “TTATTAATCCACGTGTCTCTCCATCGTACATGTTGACCACCGGAGTCACCTAGTGCAG”: the binding signal was 9700 fluorescence intensity (a.u.).
As for “GTGCTGTTTGTGATGTTTGTCTGTATGTGCTCCGTCTGTTCGGAGTCACCTAGTGCAG”, the binding signal was 11600 fluorescence intensity (a.u.).
With “ACTCTTTTTTTCTTTTTTTTTCTCATTAATATGAGAATTTCGGAGTCACCTAGTGCAG”, the binding signal is 8660 fluorescence intensity (a.u.).
For “CAGGTGCTACCTCCGCCGCGTCGCACTCGCGCTGCCGTCCCGGAGTCACCTAGTGCAG” the value was 8780 fluorescence intensity (a.u.); for “TTTCGATTGATTTTGCCTCCTGAAGCGTTGTCTAGCTTTTCGGAGTCACCTAGTGCAG”, 8180 fluorescence intensity (a.u.).
“TGACTTCTTCCTTCTAATGCTCTCTCTTCTTCAACCTCTGCGGAGTCACCTAGTGCAG”: the binding signal is 8080 fluorescence intensity (a.u.).
Then “CGTGTGGTACCTGGCTAGAAACGCGTCCACCCCGTCCACGCGGAGTCACCTAGTGCAG”, with 8040 fluorescence intensity (a.u.); and “AGCCGCACTCCTCGAGTCCACCACTCCGCCGCGCACCACTCGGAGTCACCTAGTGCAG”, with 8200 fluorescence intensity (a.u.).
In the case of “GGGTATTCCTTTGTGCGTGTATATAGTCCTTAGTTAATTTCGGAGTCACCTAGTGCAG”, the binding signal was 15400 fluorescence intensity (a.u.).
For “TCTCTCTCGCCGCCGACTCGCCTCACCCGCCGCTATATATCGGAGTCACCTAGTGCAG” the value was 13500 fluorescence intensity (a.u.).
Then “CTCATCTCCACAAGGACACCCCAGCCCACCACTCATCGGCCGGAGTCACCTAGTGCAG”, with 8060 fluorescence intensity (a.u.); and “AACTACATATTGTATATACTTTCATCTAACACTGCTGTCACGGAGTCACCTAGTGCAG”, with 10400 fluorescence intensity (a.u.); and “AGTGTCTGACACTACTTAAGAAACCATAGCAGTGCTAAAGCGGAGTCACCTAGTGCAG”, with 31200 fluorescence intensity (a.u.).
Then “TCTCACCATCCAGTGGTCACTGCTCCTCCTTCCTTTCCTTCGGAGTCACCTAGTGCAG”, with 8360 fluorescence intensity (a.u.); and “CCTCGTGTCATTCTGTCGCTATCTCGTTATGGGTTATGGGCGGAGTCACCTAGTGCAG”, with 14000 fluorescence intensity (a.u.).
Take “ACCCGCACACCGTCCCGTGCCAGCTGCCTCGCCACCGTTCCGGAGTCACCTAGTGCAG”: the binding signal is 11900 fluorescence intensity (a.u.).
“CGGTGGGTCTCAAGTTCTGAACTTTCTGTCAAGCGTCCGACGGAGTCACCTAGTGCAG”: the binding signal is 9020 fluorescence intensity (a.u.).
Then “CTCCACCGCTATCTCATTTGTCTATGTTCGAGCCATTATTCGGAGTCACCTAGTGCAG”, with 11200 fluorescence intensity (a.u.); and “AGTGAACTTTTTTCCCTGTCCCTGTGCTTTCTAATCCCAGCGGAGTCACCTAGTGCAG”, with 9370 fluorescence intensity (a.u.); and “CATTCATCAATCGTCGCCTGATCGCCTCCAGCGAAATTCTCGGAGTCACCTAGTGCAG”, with 8130 fluorescence intensity (a.u.).
Then “ACCGTCACCTGGATCCGCAACCGCGCCGCCGTCGCCCGCGCGGAGTCACCTAGTGCAG”, with 8540 fluorescence intensity (a.u.).
As for “TTTTAGGGTTATGGCCGTTGTCTTTCAATTTGAACCAGTTCGGAGTCACCTAGTGCAG”, the binding signal was 8710 fluorescence intensity (a.u.).
For “CCAATTTCTTTCTCTCTTCACTCTTTCTCTTAGTTAATATCGGAGTCACCTAGTGCAG” the value was 9550 fluorescence intensity (a.u.); for “ACTTTTTAGCCCATGTCACATCGGATGTTTGGACGTTAATCGGAGTCACCTAGTGCAG”, 9010 fluorescence intensity (a.u.); for “TTGTAAATTTTTTTCGTTTGTAAATATACCGTTTGGTTTACGGAGTCACCTAGTGCAG”, 8500 fluorescence intensity (a.u.).
Regarding “TCTACTGTCATGCTTCCTTGTCCCATTATTACATCGTCGTCGGAGTCACCTAGTGCAG”, the binding signal was 14200 fluorescence intensity (a.u.).
With “TTGATCCTGCTTTTAGTTATAGTTTTTGTTAGGGTGTATTCGGAGTCACCTAGTGCAG”, the binding signal was 10100 fluorescence intensity (a.u.).
On to “TGCTCCACCACCGCGTCCTCCTGCTCCTCGAACTCCAACCCGGAGTCACCTAGTGCAG”, for which the binding signal is 8590 fluorescence intensity (a.u.).
For “AATGTTGTTTGGCTTATGTGTTCCTTATTTCCATCATCTGCGGAGTCACCTAGTGCAG” the value was 10800 fluorescence intensity (a.u.); for “CTTCTCTGTTATCATCGTATATACTACATATTTTACATTGCGGAGTCACCTAGTGCAG”, 9820 fluorescence intensity (a.u.).
For “GGATCATTTTTCGGCCCTACGCGCGGCCTCCCTCCCGGGACGGAGTCACCTAGTGCAG” the value was 8540 fluorescence intensity (a.u.).

The values above are taken from paper PMC7819943, “Rice protein-binding microarrays: a tool to detect cis-acting elements near promoter regions in rice”.
